Data: US20150064174A1 (BRIGHAM AND WOMEN S HOSPITAL, published 2015)
These are yes or no findings as the source states them, for the method shown. Some entries that bind do so weakly or less than the wild type.

Amino acid sequences for entries named in this document (tags omitted). Residues count along the entry.
UniProt P03200, residues 1-860: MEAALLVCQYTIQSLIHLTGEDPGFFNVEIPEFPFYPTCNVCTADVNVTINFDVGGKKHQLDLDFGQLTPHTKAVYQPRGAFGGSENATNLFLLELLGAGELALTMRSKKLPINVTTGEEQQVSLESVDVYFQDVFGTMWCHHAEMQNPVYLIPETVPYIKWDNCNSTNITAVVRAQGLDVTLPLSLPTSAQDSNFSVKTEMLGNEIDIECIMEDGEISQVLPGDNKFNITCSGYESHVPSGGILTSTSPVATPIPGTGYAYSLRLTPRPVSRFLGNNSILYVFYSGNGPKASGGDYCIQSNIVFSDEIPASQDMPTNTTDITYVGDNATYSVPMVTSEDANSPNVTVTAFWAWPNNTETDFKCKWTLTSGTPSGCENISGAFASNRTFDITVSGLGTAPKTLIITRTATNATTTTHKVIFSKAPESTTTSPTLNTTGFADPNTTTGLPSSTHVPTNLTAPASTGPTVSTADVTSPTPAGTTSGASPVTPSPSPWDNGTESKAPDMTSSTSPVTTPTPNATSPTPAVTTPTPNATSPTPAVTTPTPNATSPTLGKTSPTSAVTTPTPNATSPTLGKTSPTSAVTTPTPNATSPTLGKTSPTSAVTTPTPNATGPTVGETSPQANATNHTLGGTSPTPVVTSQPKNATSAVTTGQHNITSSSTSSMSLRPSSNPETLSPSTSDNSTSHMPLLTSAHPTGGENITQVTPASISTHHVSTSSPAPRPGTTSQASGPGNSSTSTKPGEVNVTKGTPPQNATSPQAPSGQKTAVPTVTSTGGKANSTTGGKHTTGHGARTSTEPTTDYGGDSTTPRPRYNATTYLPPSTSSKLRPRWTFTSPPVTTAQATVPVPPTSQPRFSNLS

What was measured:
[1] = molecular target: Epstein-Barr virus (EBV)-encoded glycoprotein 350 (gp350) (Epstein-Barr virus) (UniProt P03200); assay: ELISA, plate-coated gp350 (FIG. 6)
[2] = molecular target: Epstein-Barr virus (EBV)-encoded glycoprotein 350 (gp350) (Epstein-Barr virus) (UniProt P03200); assay: ELISA, plate-coated purified gp350, HEK293T supernatant, anti-human IgG-HRP
[3] = molecular target: Epstein-Barr virus (EBV)-encoded glycoprotein 350 (gp350) (Epstein-Barr virus) (UniProt P03200); assay: immunoassay with recombinant host cell supernatants (FIG. 9)

Measured: binding

B1: recombinant humanized (chimeric) 72A1 antibody, heavy chain 1 and lambda light chain (Vh1L) (antibody, human IgG1, V domains shown)
VH: EVQLQQSGPELVKPGTSMKISCKASGSSFTDYTMNWMKQSHGKNLEWIGLINPYNGGTRYNQKFKGKATLTLDKSSSTAYMEVLSLTSEDSAVYYCAGGLRRVNWFAYWGQGTLVSVSA
VL: QAVLTQESALTTSPGETVTLTCRSSTGAVTTSNYANWVQEKPDHLFTGLIGGTNNRVPGVPARFSGSLIGDKAALTITGAQTEDEAIYFCVLWHSNHWVFGGGTKLTVL
binds: all assays above
